{
  "source": "paper doi:10.1101/2023.09.17.558134",
  "about": "(bioRxiv, 2023)",
  "tested_on": "RNAP core + sigma70",
  "experiment": "heparin challenge of open complex, read by single-round transcription",
  "conditions": "no CedA, 10 ug/ml heparin, shorter RPo lifetime than with CedA",
  "note": "For at least one entry, the source does not settle the construct or the ends of the probe. A weaker result is weaker than the reference pair of the same experiment. At least one verdict rests on a figure or table, not on a statement of the authors.",
  "data": [
    {"sequence": "TGGCAGTTTTAGGCTGATTTGGTTGAATGTTGCGCGGTCAGAAAATTATTTTAAATTTCCTCTTGTCAGGCCGGAATAACTCCCTATAATGCGCCACCACTGACACGGAACAACGGCAAACACGCCGCCGGGTCAGCGGGGTTCTCCTGAGAACTCCGGCAGAGAAAGCAAAAATAAATGC (double strand) [rrnBP1 promoter fragment]", "values": [
      {"measurement": "binding result", "value": "binds more weakly"}
    ]}
  ]
}
